According to paper PMC5770787:
Results are given in words; binding and its absence hold for the method and conditions named. In cells and extracts the contact can be indirect. Some binding calls cover weakened binding; strength is not graded here. Where a sequence is shown, tags or fusion partners need not be part of it.

The chains behind the UniProt entries cited, without tags or fusion partners.
UniProt P51149: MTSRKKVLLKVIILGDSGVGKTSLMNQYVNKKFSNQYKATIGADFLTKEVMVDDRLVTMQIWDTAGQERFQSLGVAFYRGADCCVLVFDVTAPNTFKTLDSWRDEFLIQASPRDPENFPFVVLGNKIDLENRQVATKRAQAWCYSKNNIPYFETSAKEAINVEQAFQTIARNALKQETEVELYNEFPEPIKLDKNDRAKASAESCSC

Target: T1, GFP-GDI1 (UniProt P31150)
T1 sequence: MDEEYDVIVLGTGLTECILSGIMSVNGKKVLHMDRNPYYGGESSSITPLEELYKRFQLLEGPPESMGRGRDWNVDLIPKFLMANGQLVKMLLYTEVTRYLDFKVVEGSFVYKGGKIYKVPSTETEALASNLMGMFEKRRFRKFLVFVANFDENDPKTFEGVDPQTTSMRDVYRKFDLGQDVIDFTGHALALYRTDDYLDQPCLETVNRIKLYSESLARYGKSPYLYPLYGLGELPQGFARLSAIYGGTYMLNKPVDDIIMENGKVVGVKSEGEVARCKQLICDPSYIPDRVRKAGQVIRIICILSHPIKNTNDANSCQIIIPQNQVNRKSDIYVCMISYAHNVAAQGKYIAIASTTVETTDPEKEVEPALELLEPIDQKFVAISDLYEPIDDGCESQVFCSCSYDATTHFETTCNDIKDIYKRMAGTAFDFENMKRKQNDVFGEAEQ
Assay: co-IP; GFP-trap of lentivirally expressed GFP bait (GFP-RAB7 from parental HeLa; GFP-GDI1 from parental HeLa and VPS35 KO cells); Tris-HCl pH 7.8, 50 mM NaCl, 0.5% Triton X-100, 1 mM MgCl2; Western blot for endogenous prey

binding: binds
Substance: endogenous RAB7a (from UniProt P51149 1-207)
